In all, about 33,000 sequences were measured (“E-score (-0.5 to 0.5)”: median about -8e-05, highest 2% from about 0.23 on). Some of the results follow.
Target: T1, Nrg2 (UniProt P38082)
T1 sequence: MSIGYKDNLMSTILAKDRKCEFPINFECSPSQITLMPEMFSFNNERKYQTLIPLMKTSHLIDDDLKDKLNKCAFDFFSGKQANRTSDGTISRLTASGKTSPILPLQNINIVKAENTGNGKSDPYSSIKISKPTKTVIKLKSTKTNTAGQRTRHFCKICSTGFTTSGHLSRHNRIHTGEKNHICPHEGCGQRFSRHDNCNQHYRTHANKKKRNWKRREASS
Test: PBM E-score (8-mer binding enrichment) (E-score (-0.5 to 0.5)); higher = stronger / more preferred TF binding
Conditions: protein concentration: 100 nM; construct: GST-full length
Experimental: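 Universal 'all 10-mer' protein binding microarrays (Agilent AMADID 015681) probed with GST-tagged S. cerevisiae TFs (full-length or DBD) made by in vitro transcription/translation (PURExpress), about 100-200 nM. Bound TF was detected with fluorescent anti-GST. Each ungapped 8-mer (which stands for itself and its reverse complement) is scored by the PBM enrichment score (E-score), a modified Wilcoxon-Mann-Whitney statistic from -0.5 to +0.5, computed with the Universal PBM Analysis Suite. Scale: above 0.35 generally sequence-specific binding.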

Sequence	PBM E-score
CTGAGCGA	-0.106
ATGGAGGA	-0.0258
CAGGGTCA	0.0802
CACGTATC	-0.00716
CAAGGTGG	-0.0176
CACAACGA	-0.059
CCTTGTGA	-0.044
CGCTGCCC	-0.213
CGGTTTCA	-0.0393
AGAAATTC	-0.0387
ACCACCAC	0.0164
AGCTAAGG	-0.224
AAATCGCA	0.158
GCAGATTA	0.0952
CAGTGCCG	-0.0687
CGGGGTAG	-0.0188
AATTATTC	0.198
ATGTCAAT	0.0977
GTCCCCAC	-0.178
GAGTGGTA	0.0172
AGCCTGCG	-0.233
AATCGAAC	0.169
AAACTAAT	0.199
GTTACAAC	0.126
ATCTTCGG	0.0324

Pulled one by one from the entries so far:
Sequence	PBM E-score
CAGTGCCG	-0.0687
GCAGATTA	0.0952
CACGTATC	-0.00716
AATTATTC	0.198

The results go on.

Sequence	PBM E-score
ACGTGCCT	0.00112
ATTTGGGA	0.0513
ATCCCATC	-0.144
ATCGGCGG	0.199
CTTGGGTA	-0.00881
GACTAGAA	-0.0796
ACATCAGC	-0.00951
CGGACCCC	0.0837
CTTCGAAC	0.108
GACTCACC	-0.148
GCCACTCA	0.0595
TATAGGAA	0.0655
CAGTTGTC	0.0512
GTATCAGA	0.0276
GGACTGCA	-0.154
AGTACCCC	-0.0371
AGGATGGA	-0.195
ATCGACAA	0.119
ATTGCAAT	0.243
AGCATGTC	0.0343
ACGTTCAA	-0.133
GGATAACA	-0.0583
ATATTAGG	0.18
GATTCGGC	0.0798
ATCAAAGA	-0.0298

Sequence	PBM E-score
CCCTAGAG	0.15
GCCTATCC	-0.175
GTAGCTCA	-0.0915
TAACGACA	0.115
AAATACAT	0.0058
ACAACTGC	-0.016
AGGGACCT	0.382
ATGATCTG	0.15
CGCTGTGC	0.167
CGACAAGC	-0.0195
CAACATCC	-0.0888
CCGGGAGC	-0.266
AGGCTGAG	-0.0549
CCAAAGTA	0.00471
GAAGTTAA	-0.00457
ACATCAAT	0.079
CAAACCAC	-0.00637
CCACCAAG	0.0215
AAACCCAG	0.00959
ACATCAAC	0.228
AATAACAC	0.197
GACCAAGC	-0.0404
ATCAATGC	0.0965
AACATCCA	0.0677
GGACAAAC	0.0767

Sequence	PBM E-score
ATAGCCAG	-0.127
GAAAAGGA	-0.0375
CCTGATCG	-0.0221
AAATTGAT	0.115
ATTTGTGA	-0.0161
GAGCTAAA	-0.0724
TCCTGCCA	-0.123
ACCTCCAA	-0.174
ATGGAAAA	0.0617
ACGGGTCA	-0.231
CTTTAAAA	-0.0806
AATCTGAG	-0.0573
ACGGTCTG	-0.0636
CAATACGA	0.0389
GAGTATAC	-0.00627
GTGCCCAA	-0.029
GCCTTGCC	-0.147
CAGCTACA	0.0867
GACTAAGC	-0.0902
CGGTTAGC	-0.25
GGGACAAC	0.0721
CGTTAATA	0.11
ATTAAGTA	-0.0327
GGGAAAAC	-0.00151
GCCGGCCC	0.00556

Sequence	PBM E-score
GACTGTCC	-0.0567
CAAGCTTA	0.048
TATGACAA	0.071
CAATCAGG	-0.0411
ATTGCAAA	0.127
CGTAAGTC	-0.0277
ACCATTCG	-0.135
ATTTGTTG	0.137
AGGCAAAG	-0.0784
AATGGAGA	-0.105
ACTAGTCT	-0.105
CGGTAGGA	-0.0892
GCCGCCGA	0.19
ATTCACGA	0.0517
AGGGATAA	0.0739
GACCCTGC	0.331
TACAAGTA	-0.0759
GCACCGGC	0.0655
AGGGCGTA	0.00226
CGTGCCGA	0.0149
ATCCTACG	-0.0483
ATAATCCA	0.128
ATAGGGAG	-0.184
CCCACTTC	0.0212
ATATCCAG	0.211

A few values from the entries so far.
PBM E-score with ATGATCTG reads 0.15
PBM E-score with ATGGAGGA reads -0.0258
PBM E-score with AATCTGAG reads -0.0573
PBM E-score with TCCTGCCA reads -0.123
PBM E-score with GTATCAGA reads 0.0276

Remaining list, next part

Sequence	PBM E-score
GGGTACGA	0.0582
ATCTACAT	0.148
TAAACATA	0.127
AAACATAA	0.141
CCGGTCGA	-0.157
GATGTTCA	-0.165
ACAAGTTG	0.0622
GACGGTCC	-0.0844
CAACGGGC	0.0722
CCGGAGCG	-0.267
AAATTTAG	0.106
GCCAACGA	-0.0525
AACAAACA	0.22
CCTGCGTC	-0.15
CTGTTATA	0.00374
AAGCTATT	-0.162
ACGACGAG	-0.0415
GATTGTAA	0.00034
CAACTTAG	0.221
AAACGGAG	-0.00761
CCGAAGTC	0.0152
CTACGCCA	-0.213
GCACACCC	-0.193
ACTACGCT	-0.0872
TCAGGGCA	0.225

Sequence	PBM E-score
TGCATCCA	0.0033
TCTGTTAA	-0.053
AGCACGCA	-0.154
ACATGAGA	0.0387
ATTAGAAC	0.121
AAACCCCT	-0.0764
ACGGGTTG	-0.159
GGTAAGCA	0.0126
ATGGGCGC	-0.0707
AAGCTGCA	0.0133
AAGGTGAG	-0.109
AAGCCTCT	-0.249
CAAATTGA	0.133
TACGAACA	0.0119
CAACCTCA	-0.0281
GCCCTTGA	-0.00607
CTACTGCC	-0.0361
CGGAAGAA	-0.0893
TAGATGAA	-0.101
CCCGCAAC	0.154
GAGGCTAA	-0.0922
CGGCAGGA	-0.173
AAAAACTG	-0.178
CGGTGGCC	0.0203
ACGCTAGT	-0.0728

Sequence	PBM E-score
TACGACTA	0.0667
ATCTATTG	0.00621
GCCACTTA	-0.0989
GGGAATGA	0.155
GAGGTGCC	-0.0447
AGACGCGG	0.0784
CCCCACTA	-0.0992
CAGCATAC	-0.0945
GCGCGACA	0.00371
GCACCAAC	-0.0953
CAGAGCTC	-0.145
ACGGTTCA	-0.207
GAGTTACC	0.0711
GAACCGTC	-0.104
AGAGATCT	-0.146
AGGCACAA	-0.132
ACGGGCTC	-0.324
ACAACGCG	0.12
GAGCTCGC	0.112
CGATCCTA	0.00763
AGGGAACC	0.0118
GAGTGTAA	-0.187
CCAGTATC	0.0432
AAGGAAAA	0.0535
AGGGCAAT	0.0232

Sequence	PBM E-score
AAGGCGGC	-0.14
AGGGTAAA	0.172
CCAATCAA	0.0436
AACATATG	-0.124
AACTTAAT	0.164
ACATAGTA	0.0458
CCTTGAGA	0.094
CTATGCGA	-0.069
ATAATCAT	0.235
CATGACCA	0.0185
ACCAGATC	-0.0731
GGCTAGCA	-0.166
CCCGTGCG	0.122
ACCTACCT	-0.0889
ATGACGCC	-0.122
AAATATGA	0.155
ATCGAACG	0.0718
ACATCTGC	-0.051
CTGAGGAC	-0.0637
